Data published in US20080233628A1.
These are yes or no findings as the source states them, for the method shown. Some results given as binding are weak or reduced against the parent protein; the word gives no strength.

Columns and labels:
[1] = target: Steely1 C-terminal type III PKS domain (heterologously expressed Steely1 medium length (SIM) construct) (Dictyostelium discoideum) (UniProt Q55E72); experiment: X-ray crystal structure; self-association (homodimer)
[2] = target: Steely1 C-terminal type III PKS domain (heterologously expressed Steely1 medium length (SIM) construct) (Dictyostelium discoideum) (UniProt Q55E72); experiment: X-ray crystal structure, 2.9 Angstrom; self-association (homodimer)
[3] = target: Steely1 C-terminal type III PKS domain (heterologously expressed Steely1 medium length (SIM) construct) (Dictyostelium discoideum) (UniProt Q55E72); experiment: X-ray crystal structure, figure legend; self-association (homodimer)
[4] = target: Steely1 C-terminal type III PKS domain (heterologously expressed Steely1 medium length (SIM) construct) (Dictyostelium discoideum) (UniProt Q55E72); experiment: X-ray crystal structure, asymmetric unit content; self-association (homodimer)

Measured: binding

B1: Steely1 C-terminal type III PKS domain (heterologously expressed Steely1 medium length (SIM) construct) (enzyme)
chain: LSRLSYKSNNNSFVLGIGISVPGEPISQQSLKDSISNDFSDKAETNEKVKRIFEQSQIKTRHLVRDYTKPENSIKFRHLETITDVNNQFKKVVPDLAQQACLRALKDWGGDKGDITHIVSVTSTGIIIPDVNFKLIDLLGLNKDVERVSLNLMGCLAGLSSLRTAASLAKASPRNRILVVCTEVCSLHFSNTDGGDQMVASSIFADGSAAYIIGCNPRIEETPLYEVMCSINRSFPNTENAMVWDLEKEGWNLGLDASIPIVIGSGIEAFVDTLLDKAKLQTSTAISAKDCEFLIHTGGKSILMNIENSLGIDPKQTKNTWDVYHAYGNMSSASVIFVMDHARKSKSLPTYSISLAFGPGLAFEGCFLKNVV
binds: all assays above
